# The other results are listed elsewhere or left out. Most of these values are background signal.
# B1: 4-99.4 (protein)
# chain 1: QVQLQESGPGLVKPSETLSLTCAVSGYSISSAYFWGWIRQPPGKGLEYIGYISGEGGKSYYNPSLMSRVTISKDTSKNQFSLKLNTVTAADTAVYYCARRAILVGFDLWGQGVLVTVSS
# chain 2: QAAPTQPPSVSGSPGQSVTISCTGSNSDIGYYNAVSWYQQHPGKAPKLMIYEVSKRPSGVSDRLTGSKSGNTASLTISGLQAEDEADYYCSSYAGSNTYIFGTGTRLTVL
# What was measured:
# Assay in all cases: fluorescence intensity of antibody binding to polysaccharide-coupled beads; higher = stronger binding
# [1] = biological target: pneumococcal polysaccharide Pn15B
# Method: (§1)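 Recombinant rhesus-murine chimeric IgG1 antibodies were tested against antigen-coupled MagPlex beads in a 96-plex Luminex direct immunoassay (dLIA). The beads carried pneumococcal capsular polysaccharides of 93 serotypes plus C-polysaccharides. Antibody was added at 0.1–12,500 ng/mL for 1 h, then PE anti-mouse IgG, and net MFI was read on a Bio-Plex 3D. Only the rhesus variable regions are printed; constant regions are murine IgG1/kappa/lambda, and the signal peptide is MGWSCIILFLVATATGVHS.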
# [2] = biological target: pneumococcal polysaccharide Pn15C
# Method: as §1
# [3] = biological target: pneumococcal polysaccharide Pn15F
# Method: as §1
# [4] = biological target: pneumococcal polysaccharide Pn16A
# Method: as §1
# [5] = biological target: pneumococcal polysaccharide Pn16F
# Method: as §1
# [6] = biological target: pneumococcal polysaccharide Pn17A
# Method: as §1
# [7] = biological target: pneumococcal polysaccharide Pn17F
# Method: as §1
# [8] = biological target: pneumococcal polysaccharide Pn18A
# Method: as §1
# [9] = biological target: pneumococcal polysaccharide Pn18B
# Method: as §1
# [10] = biological target: pneumococcal polysaccharide Pn18C
# Method: as §1
# [11] = biological target: pneumococcal polysaccharide Pn18F
# Method: as §1
# [12] = biological target: pneumococcal polysaccharide Pn19A
# Method: as §1
# [13] = biological target: pneumococcal polysaccharide Pn19B
# Method: as §1
# [14] = biological target: pneumococcal polysaccharide Pn19C
# Method: as §1
# [15] = biological target: pneumococcal polysaccharide Pn19F
# Method: as §1
# [16] = biological target: pneumococcal polysaccharide Pn2
# Method: as §1
# [17] = biological target: pneumococcal polysaccharide Pn20A
# Method: as §1
# [18] = biological target: pneumococcal polysaccharide Pn20B
# Method: as §1
# [19] = biological target: pneumococcal polysaccharide Pn21
# Method: as §1
# [20] = biological target: pneumococcal polysaccharide Pn22A
# Method: as §1
# [21] = biological target: pneumococcal polysaccharide Pn22F
# Method: as §1
# [22] = biological target: pneumococcal polysaccharide Pn23A
# Method: as §1
# [23] = biological target: pneumococcal polysaccharide Pn23B
# Method: as §1
# [24] = biological target: pneumococcal polysaccharide Pn23F
# Method: as §1
# [25] = antibody concentration 2337.65 ng/mL
# [26] = antibody concentration 12500 ng/mL
# [27] = antibody concentration 0.1 ng/mL
# [28] = antibody concentration 0.534724 ng/mL
# [29] = antibody concentration 2.8593 ng/mL
# [30] = antibody concentration 15.2894 ng/mL
# [31] = antibody concentration 81.7561 ng/mL
# [32] = antibody concentration 437.17 ng/mL
binder,measurement,setting,value
B1,fluorescence intensity,[1]; [25],23 MFI
same,fluorescence intensity,[1]; [26],35 MFI
same,fluorescence intensity,[2]; [27],18.2 MFI
same,fluorescence intensity,[2]; [28],16.8 MFI
same,fluorescence intensity,[2]; [29],19 MFI
same,fluorescence intensity,[2]; [30],19 MFI
same,fluorescence intensity,[2]; [31],17.8 MFI
same,fluorescence intensity,[2]; [32],16 MFI
same,fluorescence intensity,[2]; [25],20.5 MFI
same,fluorescence intensity,[2]; [26],22 MFI
same,fluorescence intensity,[3]; [27],18.2 MFI
same,fluorescence intensity,[3]; [28],17 MFI
same,fluorescence intensity,[3]; [29],17 MFI
same,fluorescence intensity,[3]; [30],19 MFI
same,fluorescence intensity,[3]; [31],17.5 MFI
same,fluorescence intensity,[3]; [32],17.5 MFI
same,fluorescence intensity,[3]; [25],20.2 MFI
same,fluorescence intensity,[3]; [26],27.5 MFI
same,fluorescence intensity,[4]; [27],16 MFI
same,fluorescence intensity,[4]; [28],14 MFI
same,fluorescence intensity,[4]; [29],14.5 MFI
same,fluorescence intensity,[4]; [30],14 MFI
same,fluorescence intensity,[4]; [31],14 MFI
same,fluorescence intensity,[4]; [32],14.5 MFI
same,fluorescence intensity,[4]; [25],17.2 MFI
same,fluorescence intensity,[4]; [26],20.5 MFI
same,fluorescence intensity,[5]; [27],25.2 MFI
same,fluorescence intensity,[5]; [28],25.5 MFI
same,fluorescence intensity,[5]; [29],24.5 MFI
same,fluorescence intensity,[5]; [30],23.2 MFI
same,fluorescence intensity,[5]; [31],23.8 MFI
same,fluorescence intensity,[5]; [32],26 MFI
same,fluorescence intensity,[5]; [25],28.2 MFI
same,fluorescence intensity,[5]; [26],37.5 MFI
same,fluorescence intensity,[6]; [27],21 MFI
same,fluorescence intensity,[6]; [28],21.5 MFI
same,fluorescence intensity,[6]; [29],20.5 MFI
same,fluorescence intensity,[6]; [30],20.8 MFI
same,fluorescence intensity,[6]; [31],21 MFI
same,fluorescence intensity,[6]; [32],20.5 MFI
same,fluorescence intensity,[6]; [25],22.5 MFI
same,fluorescence intensity,[6]; [26],24.2 MFI
same,fluorescence intensity,[7]; [27],24.5 MFI
same,fluorescence intensity,[7]; [28],28 MFI
same,fluorescence intensity,[7]; [29],25 MFI
same,fluorescence intensity,[7]; [30],25.5 MFI
same,fluorescence intensity,[7]; [31],26.5 MFI
same,fluorescence intensity,[7]; [32],27.8 MFI
same,fluorescence intensity,[7]; [25],29 MFI
same,fluorescence intensity,[7]; [26],30 MFI
same,fluorescence intensity,[8]; [27],24.5 MFI
same,fluorescence intensity,[8]; [28],25 MFI
same,fluorescence intensity,[8]; [29],23.5 MFI
same,fluorescence intensity,[8]; [30],23.5 MFI
same,fluorescence intensity,[8]; [31],24 MFI
same,fluorescence intensity,[8]; [32],24.5 MFI
same,fluorescence intensity,[8]; [25],25 MFI
same,fluorescence intensity,[8]; [26],29.8 MFI
same,fluorescence intensity,[9]; [27],31.2 MFI
same,fluorescence intensity,[9]; [28],31.5 MFI
same,fluorescence intensity,[9]; [29],31.5 MFI
same,fluorescence intensity,[9]; [30],30 MFI
same,fluorescence intensity,[9]; [31],30.5 MFI
same,fluorescence intensity,[9]; [32],33 MFI
same,fluorescence intensity,[9]; [25],35 MFI
same,fluorescence intensity,[9]; [26],45.2 MFI
same,fluorescence intensity,[10]; [27],19.5 MFI
same,fluorescence intensity,[10]; [28],19.5 MFI
same,fluorescence intensity,[10]; [29],19 MFI
same,fluorescence intensity,[10]; [30],20.5 MFI
same,fluorescence intensity,[10]; [31],19.2 MFI
same,fluorescence intensity,[10]; [32],20.5 MFI
same,fluorescence intensity,[10]; [25],20.8 MFI
same,fluorescence intensity,[10]; [26],39.5 MFI
same,fluorescence intensity,[11]; [27],23.2 MFI
same,fluorescence intensity,[11]; [28],23 MFI
same,fluorescence intensity,[11]; [29],23 MFI
same,fluorescence intensity,[11]; [30],24.5 MFI
same,fluorescence intensity,[11]; [31],24.5 MFI
same,fluorescence intensity,[11]; [32],25.5 MFI
same,fluorescence intensity,[11]; [25],28.5 MFI
same,fluorescence intensity,[11]; [26],40.5 MFI
same,fluorescence intensity,[12]; [27],18 MFI
same,fluorescence intensity,[12]; [28],20 MFI
same,fluorescence intensity,[12]; [29],20 MFI
same,fluorescence intensity,[12]; [30],19.5 MFI
same,fluorescence intensity,[12]; [31],18.5 MFI
same,fluorescence intensity,[12]; [32],18.5 MFI
same,fluorescence intensity,[12]; [25],19.5 MFI
same,fluorescence intensity,[12]; [26],29.5 MFI
same,fluorescence intensity,[13]; [27],28 MFI
same,fluorescence intensity,[13]; [28],31 MFI
same,fluorescence intensity,[13]; [29],29.5 MFI
same,fluorescence intensity,[13]; [30],28.5 MFI
same,fluorescence intensity,[13]; [31],29 MFI
same,fluorescence intensity,[13]; [32],30 MFI
same,fluorescence intensity,[13]; [25],35.5 MFI
same,fluorescence intensity,[13]; [26],118 MFI
same,fluorescence intensity,[14]; [27],28.5 MFI
same,fluorescence intensity,[14]; [28],26.5 MFI
same,fluorescence intensity,[14]; [29],23.5 MFI
same,fluorescence intensity,[14]; [30],25 MFI
same,fluorescence intensity,[14]; [31],25.5 MFI
same,fluorescence intensity,[14]; [32],26.5 MFI
same,fluorescence intensity,[14]; [25],31.5 MFI
same,fluorescence intensity,[14]; [26],77.2 MFI
same,fluorescence intensity,[15]; [27],27 MFI
same,fluorescence intensity,[15]; [28],26 MFI
same,fluorescence intensity,[15]; [29],26.5 MFI
same,fluorescence intensity,[15]; [30],27 MFI
same,fluorescence intensity,[15]; [31],27.5 MFI
same,fluorescence intensity,[15]; [32],27.2 MFI
same,fluorescence intensity,[15]; [25],30.5 MFI
same,fluorescence intensity,[15]; [26],48.5 MFI
same,fluorescence intensity,[16]; [27],20.5 MFI
same,fluorescence intensity,[16]; [28],21.5 MFI
same,fluorescence intensity,[16]; [29],20.8 MFI
same,fluorescence intensity,[16]; [30],18.5 MFI
same,fluorescence intensity,[16]; [31],19.5 MFI
same,fluorescence intensity,[16]; [32],22 MFI
same,fluorescence intensity,[16]; [25],24.5 MFI
same,fluorescence intensity,[16]; [26],32 MFI
same,fluorescence intensity,[17]; [27],24.5 MFI
same,fluorescence intensity,[17]; [28],23.5 MFI
same,fluorescence intensity,[17]; [29],22.8 MFI
same,fluorescence intensity,[17]; [30],22.5 MFI
same,fluorescence intensity,[17]; [31],22.5 MFI
same,fluorescence intensity,[17]; [32],23 MFI
same,fluorescence intensity,[17]; [25],27.8 MFI
same,fluorescence intensity,[17]; [26],75 MFI
same,fluorescence intensity,[18]; [27],24.5 MFI
same,fluorescence intensity,[18]; [28],25 MFI
same,fluorescence intensity,[18]; [29],22.5 MFI
same,fluorescence intensity,[18]; [30],22.5 MFI
same,fluorescence intensity,[18]; [31],24 MFI
same,fluorescence intensity,[18]; [32],23.8 MFI
same,fluorescence intensity,[18]; [25],25.5 MFI
same,fluorescence intensity,[18]; [26],35.5 MFI
same,fluorescence intensity,[19]; [27],19 MFI
same,fluorescence intensity,[19]; [28],20.8 MFI
same,fluorescence intensity,[19]; [29],20.5 MFI
same,fluorescence intensity,[19]; [30],18.8 MFI
same,fluorescence intensity,[19]; [31],20.5 MFI
same,fluorescence intensity,[19]; [32],19.5 MFI
same,fluorescence intensity,[19]; [25],19.8 MFI
same,fluorescence intensity,[19]; [26],26.5 MFI
same,fluorescence intensity,[20]; [27],22.8 MFI
same,fluorescence intensity,[20]; [28],22.8 MFI
same,fluorescence intensity,[20]; [29],21 MFI
same,fluorescence intensity,[20]; [30],21.2 MFI
same,fluorescence intensity,[20]; [31],22 MFI
same,fluorescence intensity,[20]; [32],21.8 MFI
same,fluorescence intensity,[20]; [25],22.5 MFI
same,fluorescence intensity,[20]; [26],39.5 MFI
same,fluorescence intensity,[21]; [27],29.5 MFI
same,fluorescence intensity,[21]; [28],30.8 MFI
same,fluorescence intensity,[21]; [29],31.5 MFI
same,fluorescence intensity,[21]; [30],30.8 MFI
same,fluorescence intensity,[21]; [31],31.2 MFI
same,fluorescence intensity,[21]; [32],33.2 MFI
same,fluorescence intensity,[21]; [25],32.2 MFI
same,fluorescence intensity,[21]; [26],41.5 MFI
same,fluorescence intensity,[22]; [27],26 MFI
same,fluorescence intensity,[22]; [28],28.8 MFI
same,fluorescence intensity,[22]; [29],27.5 MFI
same,fluorescence intensity,[22]; [30],24.5 MFI
same,fluorescence intensity,[22]; [31],29.5 MFI
same,fluorescence intensity,[22]; [32],31.8 MFI
same,fluorescence intensity,[22]; [25],40.8 MFI
same,fluorescence intensity,[22]; [26],88.5 MFI
same,fluorescence intensity,[23]; [27],31.2 MFI
same,fluorescence intensity,[23]; [28],32 MFI
same,fluorescence intensity,[23]; [29],30.5 MFI
same,fluorescence intensity,[23]; [30],31 MFI
same,fluorescence intensity,[23]; [31],31 MFI
same,fluorescence intensity,[23]; [32],32 MFI
same,fluorescence intensity,[23]; [25],32.8 MFI
same,fluorescence intensity,[23]; [26],38.2 MFI
same,fluorescence intensity,[24]; [27],17 MFI
same,fluorescence intensity,[24]; [28],19 MFI

# Source: the supplement of paper PMC11438910
